In PMC8743267 one finds binding data, which are given here for three molecules.

By UniProt entry, the sequences of proteins in these tests, tags left out. Where a name states a change or a piece, a line headed by the entry shows the natural chain unless it says otherwise. Residues count along the entry.
UniProt P05362, residues 28-532: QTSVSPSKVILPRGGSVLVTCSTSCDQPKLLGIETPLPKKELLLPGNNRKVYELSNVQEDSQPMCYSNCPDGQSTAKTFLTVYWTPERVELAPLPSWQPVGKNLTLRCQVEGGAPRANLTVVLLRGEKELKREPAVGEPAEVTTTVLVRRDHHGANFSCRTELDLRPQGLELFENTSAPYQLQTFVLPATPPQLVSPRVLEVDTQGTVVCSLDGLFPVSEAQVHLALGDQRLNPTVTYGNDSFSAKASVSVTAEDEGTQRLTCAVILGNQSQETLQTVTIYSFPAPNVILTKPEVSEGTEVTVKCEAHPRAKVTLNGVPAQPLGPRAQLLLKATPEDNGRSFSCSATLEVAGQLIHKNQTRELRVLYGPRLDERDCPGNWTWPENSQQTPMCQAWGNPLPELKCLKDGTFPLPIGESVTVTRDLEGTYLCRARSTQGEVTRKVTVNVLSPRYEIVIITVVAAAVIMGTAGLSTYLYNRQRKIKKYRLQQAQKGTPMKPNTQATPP
UniProt Q9UPT5: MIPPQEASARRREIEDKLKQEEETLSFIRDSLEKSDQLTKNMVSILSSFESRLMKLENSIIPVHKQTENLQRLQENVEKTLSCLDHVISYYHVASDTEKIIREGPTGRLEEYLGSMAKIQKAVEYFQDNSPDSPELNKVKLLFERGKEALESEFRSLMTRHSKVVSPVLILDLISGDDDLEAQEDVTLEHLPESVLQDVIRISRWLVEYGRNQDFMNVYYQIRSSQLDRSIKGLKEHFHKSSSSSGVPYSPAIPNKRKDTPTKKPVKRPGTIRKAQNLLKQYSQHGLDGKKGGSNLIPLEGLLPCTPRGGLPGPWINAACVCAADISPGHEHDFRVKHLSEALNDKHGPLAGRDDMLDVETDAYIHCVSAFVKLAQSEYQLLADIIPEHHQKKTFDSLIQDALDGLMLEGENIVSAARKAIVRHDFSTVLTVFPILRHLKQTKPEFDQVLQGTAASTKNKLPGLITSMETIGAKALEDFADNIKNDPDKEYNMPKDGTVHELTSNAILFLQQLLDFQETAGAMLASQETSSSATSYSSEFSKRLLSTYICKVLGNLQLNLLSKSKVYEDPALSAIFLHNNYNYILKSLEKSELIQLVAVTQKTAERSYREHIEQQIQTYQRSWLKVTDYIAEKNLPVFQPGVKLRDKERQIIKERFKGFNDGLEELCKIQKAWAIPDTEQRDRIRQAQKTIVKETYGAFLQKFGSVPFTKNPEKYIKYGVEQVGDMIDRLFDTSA

B1: plasmolipin (PLLP) (protein, UniProt Q9Y342 1-182)
chain: MAEFPSKVSTRTSSPAQGAEASVSALRPDLGFVRSRLGALMLLQLVLGLLVWALIADTPYHLYPAYGWVMFVAVFLWLVTIVLFNLYLFQLHMKLYMVPWPLVLMIFNISATVLYITAFIACSAAVDLTSLRGTRPYNQRAAASFFACLVMIAYGVSAFFSYQAWRGVGSNAATSQMAGGYA
B2: EPS15 homology (EH) domain-containing protein EHD1 (protein, UniProt Q9H4M9 1-534)
chain: MFSWVSKDARRKKEPELFQTVAEGLRQLYAQKLLPLEEHYRFHEFHSPALEDADFDNKPMVLLVGQYSTGKTTFIRHLIEQDFPGMRIGPEPTTDSFIAVMHGPTEGVVPGNALVVDPRRPFRKLNAFGNAFLNRFMCAQLPNPVLDSISIIDTPGILSGEKQRISRGYDFAAVLEWFAERVDRIILLFDAHKLDISDEFSEVIKALKNHEDKIRVVLNKADQIETQQLMRVYGALMWSLGKIINTPEVVRVYIGSFWSHPLLIPDNRKLFEAEEQDLFKDIQSLPRNAALRKLNDLIKRARLAKVHAYIISSLKKEMPNVFGKESKKKELVNNLGEIYQKIEREHQISPGDFPSLRKMQELLQTQDFSKFQALKPKLLDTVDDMLANDIARLMVMVRQEESLMPSQVVKGGAFDGTMNGPFGHGYGEGAGEGIDDVEWVVGKDKPTYDEIFYTLSPVNGKITGANAKKEMVKSKLPNTVLGKIWKLADVDKDGLLDDEEFALANHLIKVKLEGHELPADLPPHLVPPSKRRHE

These are yes or no findings as the source states them, for the method shown. In cells and extracts the contact can be indirect. A yes stands for co-enrichment or nearness to the bait. Other partners may have been found. No binding means not detected with the bait.

The target of the assay is ICAM-1-BirA* chimera (UniProt P05362). Kind of assay: proximity labelling; BioID: HepG2 cells stably expressing ICAM-1-BirA* incubated with 50 uM biotin for 16 h, lysed, biotinylated proteins pulled down with neutravidin-agarose, western blot; parental HepG2 cells as control. (In western blotting, separated proteins are transferred to a membrane and probed.)
For the molecule “exocyst component Exo70 (from UniProt Q9UPT5 1-735)”, the binding entry is “no binding”.
Then B1, with “binds”; and B2, with “no binding”.
